In EP4578939A1, “MYC[…]. BASED ON VARIOUS CARBON-NITROGEN METABOLIC […], METHOD FOR ISOLATING SAME, AND USE THEREOF” (Peng, Guanghao, priority 2022, dated 2024):
Structures can show the parent of a compound that is named as a salt.

System: strain YT
Experiment: inhibition of nitrification inhibitors on nitrification activity and growth
Type: cell-based, Mycobacterium sp.
Settings: inhibitor 5 mM
Description: The nitrogen contents of the two nitrogen sources were equal in a modified Stephenson medium with (NH4)2SO4 as a nitrogen source (NH4)2SO4 content was 2.0g/L) and a modified Stephenson medium with L-arginine hydrochloride (C6H14N4O2•HCl) as a nitrogen source (C6H14N4O2•HCl content was 1.6 g/L).
When sodium pyruvate was added as a carbon source in the design of a culture medium, 1.0M sodium pyruvate solution (the concentration was calculated in terms of pyruvic acid) was prepared firstly, the pH was adjusted to the range of 7.0-7.2, and the solution was sterilized separately for later use. Before use, 1ml of 1.0M sodium pyruvate solution was added to about 100ml of modified Stevenson culture medium with (NH4)2SO4 as a nitrogen source or L-arginine hydrochloride (C6H14N4O2•HCl) as a nitrogen source, and the pyruvic acid concentration of the culture system was designed to be 0.01M.
Four kinds of nitrification inhibitors 4-amino-1,2,4-triazole (ATC), dicyandiamide (DCD, C2H4N4), aminoguanidine hydrochloride (CH6N4•HCl), and guanylthiourea (C2H6N4S) were selected. The four nitrification inhibitors were prepared with a concentration of 500mM, respectively, after the solutions were filtered and sterilized, 1ml of the four nitrification inhibitors with a concentration of 500mM was added into the two medium with different nitrogen sources, such that the corresponding concentration of each of the nitrification inhibitors in the systems was 5 mM.
Two mediums with different nitrogen sources were respectively subjected to 5 treatments, namely without addition of an inhibitor, adding ATC, adding DCD, adding aminoguanidine hydrochloride, and adding guanylthiourea as shown in the table below; the YT system without addition of an inhibitor and the system without inoculation of strain YT and only addition of an inhibitor were respectively used as a control group; 1ml of PBS-YT bacterial liquid was inoculated, and 1ml of sterile water was used as a substitute when the inoculation of a bacterial strain was not performed. The total volume of each culture system was equal, it was about 100 ml.
1.5 Culture conditions: the culture was performed in a shaking table with a rotational speed of 180rpm at 28°C.
1.6 Measurement and calculation of indicator: the growth OD600 and pH value of thallus in the culture solution were measured every week, the contents of NH4^+-N, NO2^--N and NOx^--N were measured, the inhibition effect of the nitric oxide synthase (nitrification) activity of different culture systems were calculated and compared.
Nitric oxide synthase (nitrification) inhibition rate (%) = (NO2^--NYT concentration - NO2^--Nculture system added with an inhibitor concentration) ×100/ NO2^--NYT concentration

[1] = L-arginine hydrochloride as nitrogen source, 7 days (Table 13c)
[2] = L-arginine hydrochloride as nitrogen source, 14 days (Table 13c)
[3] = L-arginine hydrochloride as nitrogen source, 20 days
[4] = L-arginine hydrochloride as nitrogen source, 31 days
[5] = ammonium sulfate as nitrogen source, 7 days (Table 13c)
[6] = ammonium sulfate as nitrogen source, 14 days (Table 13c)
[7] = ammonium sulfate as nitrogen source, 20 days
[8] = ammonium sulfate as nitrogen source, 31 days
[9] = L-arginine hydrochloride as nitrogen source, 7 days
[10] = L-arginine hydrochloride as nitrogen source, 14 days
[11] = L-arginine hydrochloride as nitrogen source, 21 days
[12] = L-arginine hydrochloride as nitrogen source, 28 days
[13] = L-arginine hydrochloride as nitrogen source, 35 days
[14] = ammonium sulfate as nitrogen source, 7 days
[15] = ammonium sulfate as nitrogen source, 14 days
[16] = ammonium sulfate as nitrogen source, 21 days
[17] = ammonium sulfate as nitrogen source, 28 days
[18] = ammonium sulfate as nitrogen source, 35 days

Row | Compound | pH [1] | pH [2] | pH [3] | pH [4] | pH [5] | pH [6] | pH [7] | pH [8] | pH [9] | pH [10] | pH [11] | pH [12] | pH [13] | pH [14] | pH [15] | pH [16] | pH [17] | pH [18]
1 | Nn1cnnc1 [ATC, 4-amino-1,2,4-triazole] | 7.5 | 7.7 | 8 | 7.7 | 7.0 | 7.0 | 7.2 | 7.0 |  |  |  |  |  |  |  |  |  | 
2 | N=C(N)NC(N)=S [Amidinothiourea, guanylthiourea] |  |  |  |  |  |  |  |  | 7.2 | 7.7 | 7.7 | 7.7 | 8.0 | 6.5 | 7.0 | 7.0 | 7.0 | 7.0
3 | N=C(N)NN [Aminoguanidine hydrochloride, aminoguanidine hydrochloride] |  |  |  |  |  |  |  |  | 7.5 | 7.2 | 7.2 | 7.5 | 7.5 | 6.7 | 6.7 | 6.7 | 7.0 | 6.7
4 | N#CN=C(N)N [DCD, dicyandiamide] | 7.5 | 7.7 | 7.7 | 7.5 | 7.0 | 7.0 | 7.2 | 7.0 |  |  |  |  |  |  |  |  |  | 
